# From PubChem BioAssay AID328 (DTP/NCI, 2004)
# The list is a part of this screen's results and no random one: it is rich in T/C values a quarter to a half above the control, in often repeated tests (any T/C) and in doses without a T/C. Other doses and runs of a compound stand elsewhere. T/C is the treated group as % of the vehicle group. Some entries give survivors of the animals treated and no T/C: the source holds a T/C of zero for them, seemingly a mark for toxic or unscored doses. Some survivor counts are full or nearly so, which does not show that the dose was tolerated: the source hardly ever lists a survival T/C far under the control, and the zero likely stands for such cases as well. Counts of survivors are from the toxicity check (mostly the fifth day) where no day follows; animals may have died later. Schedule codes are those of the source, taken here to give the interval after Q, in days (D) or hours (H), and the number of doses after X. Some molecules as drawn cover several salts, stereoisomers or complexes of the source; a dose is that of the sample tested. For survival time, the PubChem record calls one and a half times the control and up active, and a quarter to a half above the control has no call in these data; cut-offs in other NCI protocols can differ. Additions like (4×) give the number of equal values in this list. Some doses were run more than once; the values are given in rising order. Some T/C values are followed by the survivors on the day toxicity was checked, most often the fifth; without a count, all were alive then.
# Test system: BDF1 mice, P388 leukemia ip, median survival T/C
# Assay: NCI In Vivo Anticancer Drug Screen. Data for tumor model P388 Leukemia (intraperitoneal) in B6D2F1 (BDF1) mice
# Conditions: T/C endpoint: median survival time, higher T/C = longer survival
# Outline: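 Reported as T/C, where T is the survival measurement in dosed animals and C the same measurement in vehicle controls.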
# [1] = dose: 200.0 mg/kg/injection, schedule: Q01DX009 (ip), vehicle: saline with Tween-80
# [2] = dose: 200.0 mg/kg/injection, schedule: Q01DX009 (ip), vehicle: Klucel (hydroxypropylcellulose) (HPC)
# [3] = dose: 400.0 mg/kg/injection, schedule: Q01DX009 (ip), vehicle: Klucel (hydroxypropylcellulose) (HPC)
# [4] = dose: 200.0 mg/kg/injection, schedule: Q01DX009 (ip), vehicle: saline
# [5] = dose: 50.0 mg/kg/injection, schedule: Q01DX009 (ip), vehicle: saline
# [6] = dose: 400.0 mg/kg/injection, schedule: Q04DX003 (ip), vehicle: saline
# [7] = dose: 100.0 mg/kg/injection, schedule: Q04DX003 (ip), vehicle: saline with Tween-80
# [8] = dose: 200.0 mg/kg/injection, schedule: Q04DX003 (ip), vehicle: saline with Tween-80
# [9] = dose: 400.0 mg/kg/injection, schedule: Q01DX009 (ip), vehicle: saline with Tween-80
# [10] = dose: 25.0 mg/kg/injection, schedule: Q01DX009 (ip), vehicle: saline
# [11] = dose: 400.0 mg/kg/injection, schedule: Q04DX003 (ip), vehicle: saline with Tween-80
# [12] = dose: 200.0 mg/kg/injection, schedule: Q04DX003 (ip), vehicle: Klucel (hydroxypropylcellulose) (HPC)
# [13] = dose: 100.0 mg/kg/injection, schedule: Q01DX009 (ip), vehicle: Klucel (hydroxypropylcellulose) (HPC)
# [14] = dose: 100.0 mg/kg/injection, schedule: Q01DX009 (ip), vehicle: saline with Tween-80
# [15] = dose: 25.0 mg/kg/injection, schedule: Q04DX003 (ip), vehicle: saline with Tween-80
smiles,measurement,setting,value
C/C(=N\NC(=O)C(=O)N/N=C(\C)c1ccccc1)c1ccccc1,survivor count,[1],6 of 6
CCCN1CSC(=S)N(CCC)C1,T/C,[2],130 % of control [5 of 6 alive]
same,T/C,[3],130 % of control [5 of 6 alive]
CC1CC(C)(O)C2C3(C)CCCC2(COC3=O)C12CCC1(CCOC1=O)O2 (configuration not stated),survivor count,"dose: 20.0 mg/kg/injection, schedule: Q01DX009 (ip), vehicle: Klucel (hydroxypropylcellulose) (HPC)",6 of 6
CSc1ncncc1N,survivor count,[4],0 of 6
O/N=c1/cc(-c2ccc(Cl)cc2)ss1,T/C,[5],131 % of control
same,T/C,"dose: 200.0 mg/kg/injection, schedule: Q04DX003 (ip), vehicle: saline",130 % of control
same,T/C,[6],130 % of control
same,survivor count,[6],3 of 6
same,survivor count,"dose: 500.0 mg/kg/injection, schedule: Q04DX003 (ip), vehicle: saline",4 of 6
OC1CC[N-]CC1.OC1CC[N-]CC1.[Cl][Pt+2]([Cl])([Cl])[Cl],survivor count,[7],4 of 6
same,survivor count,[8],1 of 6
CC(=O)Oc1ccc[nH]c1=O,T/C,[1],125 % of control
same,T/C,[9],134 and 135 % of control
same,T/C,"dose: 600.0 mg/kg/injection, schedule: Q01DX009 (ip), vehicle: saline with Tween-80",148 % of control [5 of 6 alive]
OCCN1CCN(CC/C=C2\c3ccccc3Sc3ccc(Cl)cc32)CC1,survivor count,[10],6 of 6
same,survivor count,[5],3 of 6
CS(=O)(=O)c1cnc2ccccc2n1,survivor count,[1],5 of 6
same,survivor count,[9],0 of 6
O=C1c2ccccc2CCC1(Br)C(Br)c1ccccc1 (configuration not stated),T/C,"dose: 200.0 mg/kg/injection, schedule: Q01DX001 (ip), vehicle: Klucel (hydroxypropylcellulose) (HPC)",133 % of control
c1ccc2c(c1)C1c3cccc[n+]3C2CC1n1c2ccccc2c2ccccc21 (configuration not stated),T/C,"dose: 25.0 mg/kg/injection, schedule: Q01DX009 (ip), vehicle: Klucel (hydroxypropylcellulose) (HPC)",141 % of control
same,survivor count,"dose: 35.0 mg/kg/injection, schedule: Q01DX009 (ip), vehicle: Klucel (hydroxypropylcellulose) (HPC)",6 of 6
same,survivor count,[2],0 of 6
same,survivor count,[3],4 of 6
c1ccc(CCN2CCC3(CC2)COCc2ccccc23)cc1,survivor count,"dose: 100.0 mg/kg/injection, schedule: Q01DX001 (ip), vehicle: saline with Tween-80",3 of 6
COc1cc(C=Nc2ccc(-n3ccnc3C)cc2)ccc1N(CCCl)CCCl,T/C,"dose: 2.0 mg/kg/injection, schedule: Q01DX009 (ip), vehicle: Klucel (hydroxypropylcellulose) (HPC)",146 % of control
same,T/C,"dose: 3.3 mg/kg/injection, schedule: Q01DX009 (ip), vehicle: Klucel (hydroxypropylcellulose) (HPC)",146 % of control
Clc1ccc(N=Cc2ccccc2)cc1,survivor count,[3],3 of 6
O=C(C[n+]1ccccc1)N/N=C/c1ccc(O)c(O)c1,survivor count,[9],0 of 6
same,survivor count,[11],2 of 6
CCN(CC)CCCCCCNc1cc(OC)c(F)c2c(C)ccnc12,survivor count,[5],0 of 6
same,survivor count,"dose: 100.0 mg/kg/injection, schedule: Q01DX009 (ip), vehicle: saline",0 of 6
same,survivor count,[4],0 of 6
O=C1CSC(c2ccccc2)N1 (configuration not stated),survivor count,[12],6 of 6
C[C@@H]1C[C@@]2(C)[C@@H](CC[C@@H]3[C@@H]2CC[C@]2(C)[C@@H](OC4CCCCO4)CC[C@@H]32)CC1=O (some centres not stated),survivor count,[13],6 of 6
same,survivor count,[3],6 of 6
CCCC/C=C/CO,survivor count,[1],3 of 6
CN(C)c1ccc(/C=C2\C=Cc3ccccc32)cc1F,T/C,"dose: 100.0 mg/kg/injection, schedule: Q04DX003 (ip), vehicle: saline sonified",130 % of control
O=C(O)/C=C/c1c[nH]c(=O)[nH]c1=O,survivor count,[12],6 of 6
same,survivor count,"dose: 400.0 mg/kg/injection, schedule: Q04DX003 (ip), vehicle: Klucel (hydroxypropylcellulose) (HPC)",0 of 6
O=C1C(Br)=Cc2cccc3cccc1c23,survivor count,[14],6 of 6
same,survivor count,[9],6 of 6
CCCCOC1OC[N+](C)(C)CC1(C)C (configuration not stated),survivor count,[8],6 of 6
same,survivor count,[11],0 of 6
C/C=C1/C[C@@H](C)[C@@](C)(O)C(=O)OCC2=CCN3CC[C@@H](OC1=O)[C@@H]23,survivor count,"dose: 120.0 mg/kg/injection, schedule: Q01DX010 (ip), vehicle: steroid suspending solution",6 of 6
Cn1c2c(c3ccccc3c1=O)C(=O)c1ccccc1-2,T/C,[14],126 % of control
same,T/C,[9],126 % of control
CCCCCCCCCCCC1=NCCN1,survivor count,"dose: 6.25 mg/kg/injection, schedule: Q04DX003 (ip), vehicle: saline with Tween-80",6 of 6
same,survivor count,[15],6 of 6
CCOc1ccc(Br)cc1/C=N\N=C\c1cc(Br)ccc1OCC,survivor count,"dose: 25.0 mg/kg/injection, schedule: Q01DX001 (ip), vehicle: Klucel (hydroxypropylcellulose) (HPC)",6 of 6
same,survivor count,"dose: 50.0 mg/kg/injection, schedule: Q01DX001 (ip), vehicle: Klucel (hydroxypropylcellulose) (HPC)",6 of 6
same,survivor count,"dose: 100.0 mg/kg/injection, schedule: Q01DX001 (ip), vehicle: Klucel (hydroxypropylcellulose) (HPC)",5 of 6
c1ccc2c(c1)C1CCC2c2ccccc21,survivor count,[7],6 of 6
CCC(CC)OCCN1CCN(CCCN2c3ccccc3Sc3ccc(C(F)(F)F)cc32)CC1,T/C,"dose: 20.0 mg/kg/injection, schedule: Q04DX003 (ip), vehicle: saline with Tween-80",126 % of control
CCN(CC)CC(COC)Oc1cc(C)ccc1C(C)C (configuration not stated),survivor count,[1],5 of 6
COc1cccc(C2N=NC3=C(CCCC3)N2O)c1O (configuration not stated),survivor count,[13],6 of 6
O=S1(=O)CCN(C2CC2)CC1,survivor count,[13],0 of 6
same,survivor count,[2],0 of 6
C1=C(c2ccccc2)[P+](c2ccccc2)(c2ccccc2)C=C(c2ccccc2)[P+]1(c1ccccc1)c1ccccc1,T/C,"dose: 3.3 mg/kg/injection, schedule: Q04DX003 (ip), vehicle: saline",125 % of control
same,T/C,"dose: 5.0 mg/kg/injection, schedule: Q04DX003 (ip), vehicle: saline",130 % of control
same,T/C,"dose: 7.5 mg/kg/injection, schedule: Q04DX003 (ip), vehicle: saline",130 % of control (2×)
same,T/C,"dose: 8.0 mg/kg/injection, schedule: Q01DX009 (ip), vehicle: saline",130 % of control
same,T/C,"dose: 12.0 mg/kg/injection, schedule: Q01DX009 (ip), vehicle: saline",126 % of control
same,T/C,"dose: 12.5 mg/kg/injection, schedule: Q01DX009 (ip), vehicle: saline",141 % of control
same,T/C,"dose: 17.0 mg/kg/injection, schedule: Q04DX003 (ip), vehicle: saline",136 % of control
same,T/C,"dose: 18.0 mg/kg/injection, schedule: Q01DX009 (ip), vehicle: saline",142 % of control
same,T/C,[10],129 % of control
same,T/C,"dose: 25.0 mg/kg/injection, schedule: Q04DX003 (ip), vehicle: saline",127 and 130 % of control
same,survivor count,[5],5 of 6
CC1CN1C(=O)c1cc(C(=O)N2CC2C)cc(C(=O)N2CC2C)c1 (configuration not stated),T/C,"dose: 16.5 mg/kg/injection, schedule: Q01DX009 (ip), vehicle: saline with Tween-80",127 % of control
same,T/C,"dose: 16.5 mg/kg/injection, schedule: Q04DX003 (ip), vehicle: saline with Tween-80",127 % of control
same,T/C,[15],130 % of control
same,T/C,"dose: 33.0 mg/kg/injection, schedule: Q04DX003 (ip), vehicle: saline with Tween-80",140 % of control
same,T/C,"dose: 37.5 mg/kg/injection, schedule: Q04DX003 (ip), vehicle: saline with Tween-80",130 % of control
same,survivor count,[14],4 of 6
same,survivor count,"dose: 100.0 mg/kg/injection, schedule: Q04DX003 (ip), vehicle: saline",5 of 6
CN1CCN(CCNc2ccc(CO)c3sc4ccccc4c(=O)c23)CC1,survivor count,"dose: 150.0 mg/kg/injection, schedule: Q01DX009 (ip), vehicle: Klucel (hydroxypropylcellulose) (HPC)",6 of 6
